# The other results are listed elsewhere or left out.
# How the values were obtained:
# Experiment in all cases: NMR binding call after quantification (hit when 2 of 3 NMR criteria are met) (binary (1 = binding, 0 = not binding)); higher = binding
# Details in all cases: RNA concentration 10 µM; fragment concentration 200 µM; 293 K
# [1] = tested on: SARS-CoV-2 3'-UTR RNA
# [2] = tested on: SARS-CoV-2 3_SL1 RNA
# [3] = tested on: SARS-CoV-2 3_SL1+2 RNA
# [4] = tested on: SARS-CoV-2 3_SL2 RNA
# [5] = tested on: SARS-CoV-2 3_SL3base RNA
# [6] = tested on: SARS-CoV-2 3_s2m RNA
Structure (SMILES),NMR binding call [1],NMR binding call [2],NMR binding call [3],NMR binding call [4],NMR binding call [5],NMR binding call [6]
CC(N)c1ccc(NC(=O)C2CC2)cc1.Cl (stereo not given),0,0,0,0,0,0
Cc1ccc(CC(=O)Nc2nccs2)cc1,0,0,0,0,0,0
N#Cc1ccc(Cn2cnc3ccccc32)cc1,0,0,0,0,0,0
COC(=O)COc1ccc(C#N)cc1,0,0,0,0,0,0
OC1CCN(Cc2ccc(Cl)cc2)C1 (stereo not given),0,0,0,0,0,0
CCOC(=O)c1cn[nH]c1,0,0,0,0,0,0
O=C(O)c1ccccc1OC(F)(F)F,0,0,0,0,0,0
Fc1ccc(CNCc2ccccc2)cc1,0,0,0,0,0,0
NC(=O)N1CCN(C(=O)c2ccco2)CC1,0,0,0,0,0,0
NCc1ccc(-c2cccs2)cc1,0,0,0,0,0,0
CCC(=O)Nc1ccc(C)cc1O,0,0,0,0,0,0
CCn1cc(CCO)cn1,0,0,0,0,0,0
CC(CO)Nc1ncc(Cl)cc1F (stereo not given),0,0,0,0,0,0
O=S1(=O)CCN(Cc2ccco2)CC1,0,0,0,0,0,0
CN1CCN(c2ncccc2F)CC1=O,0,0,0,0,0,0
CNC(=O)CNc1ncnc2sccc12,0,0,0,0,0,0
O=C(CCc1ccccc1)Nc1ccc(O)cc1,0,0,0,0,0,0
CC(NC1CC1)c1cccnc1 (stereo not given),0,0,0,0,0,0
Cc1cc(NC(=O)CSc2ccccc2)no1,0,0,0,0,0,0
CCC(CC)C(=O)Nc1nccs1,0,0,0,0,0,0
CC(C)c1ncc(Cl)c(C(N)=O)n1,0,0,0,0,0,0
CC(C)N1CCCC(CO)C1 (stereo not given),0,0,0,0,0,0
COCC(=O)Nc1ccccc1,0,0,0,0,0,0
CS(=O)(=O)NCC1CCNCC1,0,0,0,0,0,0

Structure (SMILES),NMR binding call [1],NMR binding call [2],NMR binding call [3],NMR binding call [4],NMR binding call [5],NMR binding call [6]
O=C(NCCc1ccccc1)NC1CCCCC1,0,0,0,0,0,0
c1nc(CN2CCNCC2)cs1,0,0,0,0,0,0
O=C(Nc1ccc(F)cc1F)Nn1cnnc1,0,0,0,0,0,0
COC(=O)c1cccc(NS(C)(=O)=O)c1,0,0,0,0,0,0
CC(C)CC(=O)NCc1ccc2c(c1)OCO2,0,0,0,0,0,0
CCNCc1cn(C)nn1,0,0,0,0,0,0
Oc1cccc(CN2CCSCC2)c1,0,0,0,0,0,0
CC1(C)CN(C(=O)CC(F)(F)F)CCO1,0,0,0,0,0,0
CC1COCCN1CCN (stereo not given),0,0,0,0,0,0
CC(=O)NCc1cn[nH]c1,0,0,0,0,0,0
C1CC(c2nc(C3CC3)no2)CN1 (stereo not given),0,0,0,0,0,0
CN(C)CCN1C(=O)c2ccccc2C1=O,0,0,0,0,0,0
CC(CO)N(C)c1ncccc1F (stereo not given),0,0,0,0,0,0
CSc1nsc(NC(C)=O)n1,0,0,0,0,0,0
COc1ccc(C(=O)Nc2ccccc2F)cc1,1,0,0,0,0,0
CC(=O)Nc1cccnc1C(=O)O,0,0,0,0,0,0
NC(=O)c1c[nH]c(C2CC2)n1,0,0,0,0,0,0
CS(=O)(=O)N1CCC(C(=O)NC2CC2)CC1,0,0,0,0,0,0
CN(C)C(=O)OCCn1ccnc1,0,0,0,0,0,0
Cc1nc(C)n(CCC(=O)O)n1,0,0,0,0,0,0
CC(C)COc1ccc(C(=O)N2CCCC2)cc1,0,0,0,0,0,0
CCOC(=O)NCc1ccccc1,0,0,0,0,0,0
Cc1nc(-c2ccccc2)no1,0,0,0,0,0,0
Cn1ccc(C(=O)Nc2cccc(C(=O)O)c2)n1,0,0,0,0,0,0

Structure (SMILES),NMR binding call [1],NMR binding call [2],NMR binding call [3],NMR binding call [4],NMR binding call [5],NMR binding call [6]
COc1ccc(NC(=O)CN)cc1,0,0,0,0,0,0
CN(Cc1cccc(F)c1)S(N)(=O)=O,0,0,0,0,0,0
O=C(Nc1ccc(Cl)cc1)Nn1cnnc1,0,0,0,0,0,0
CC(=O)N1CCCNCC1,0,0,0,0,0,0
CN(C)C(=O)C1(C(=O)O)CC1,0,0,0,0,0,0
Fc1ccccc1CNC1CCOCC1,0,0,0,0,0,0
COCC(=O)Nc1c(C)cc(C)cc1C,0,0,0,0,0,0
CC(=O)Nc1cccc(NC(N)=O)c1,0,0,0,0,0,0
Cc1cccc(NC(=O)Nc2nc(C)cs2)c1,1,0,0,0,1,1
CC(=O)Nc1cc(C)n[nH]1,0,0,0,0,0,0
CN(C)C(=O)CNc1ccccc1,0,0,0,0,0,0
Cc1nn(C)c(C)c1CN1CCNCC1,0,0,0,0,0,0
CC(=O)c1ccc(OC(F)F)cc1,0,0,0,0,0,0
CC(=O)Nc1cc2c(cc1C)OCO2,0,0,0,0,0,0
CC(NC(=O)C1CCCC1)C(=O)O (stereo not given),0,0,0,0,0,0
Cc1nnc(N2CCCCC2)s1,0,0,0,0,0,0
NC(=O)CN1CCN(C(=O)c2ccco2)CC1,0,0,0,0,0,0
CC(C)(C)NC(=O)Cn1ccc(C(F)(F)F)n1,0,0,0,0,0,0
CS(=O)(=O)N1CCCC(C(=O)O)C1 (stereo not given),0,0,0,0,0,0
CC(=O)Nc1ccc(OC(=O)N2CCCC2)cc1,0,0,0,0,0,0
Cn1cc(C(N)=O)c(C(F)F)n1,0,0,0,0,0,0
O=C(Nc1cccc(F)c1)c1cnccn1,0,0,0,0,0,0
C1CC(CNC2CC2)CO1 (stereo not given),0,0,0,0,0,0
Cc1nnc(NC(=O)N2CCOCC2)s1,0,0,0,0,0,0

# Quoted from the listing (three entries):
Structure (SMILES),NMR binding call [1],NMR binding call [2],NMR binding call [3],NMR binding call [4],NMR binding call [5],NMR binding call [6]
CCC(CC)C(=O)Nc1nccs1,0,0,0,0,0,0
CC(C)c1ncc(Cl)c(C(N)=O)n1,0,0,0,0,0,0
CC(C)N1CCCC(CO)C1 (stereo not given),0,0,0,0,0,0

# The listing continues.

Structure (SMILES),NMR binding call [1],NMR binding call [2],NMR binding call [3],NMR binding call [4],NMR binding call [5],NMR binding call [6]
c1ccc(CN2CCC(n3cccc3)CC2)cc1,0,0,0,0,0,0
COc1ccc(CNC2CCCC2)cc1,0,0,0,0,0,0
CN1CCCC(OC(=O)c2ccco2)C1 (stereo not given),0,0,0,0,0,0
NC(=O)c1cnn(CCO)c1,0,0,0,0,0,0
COc1cccc2[nH]ccc12,0,0,0,0,0,0
Cc1nc(CN2CC(F)CC2CN)cs1 (stereo not given),0,0,0,0,0,0
Cc1csc(CNC(=O)c2cc[nH]n2)n1,0,0,0,0,0,0
Cc1ccc(S(=O)(=O)N(C)CCC#N)cc1,0,0,0,0,0,0
CC(=O)N(C)c1cccnc1,0,0,0,0,0,0
CC(=O)N1CC2CCC1c1ccccc12 (stereo not given),0,0,0,0,0,0
Cc1cc(F)ccc1CS(N)(=O)=O,0,0,0,0,0,0
CC(=O)Nc1ncc(Cc2cccc(C)c2)s1,0,0,0,0,0,0
Cn1ccc(NCc2ccccc2)n1,0,0,0,0,0,0
CC(=O)NCc1ccc(S(N)(=O)=O)cc1,0,0,0,0,0,0
CC1CN(Cc2nnsc2Cl)C(C)CO1 (stereo not given),0,0,0,0,0,0
Cl.Cl.Cl.FC(F)n1ccnc1CN1CCNCC1,0,0,0,0,0,0
Cc1nn(C)c(C)c1CC(N)=O,0,0,0,0,0,0
CC1CN(C(=O)c2cnsn2)C(C)CO1 (stereo not given),0,0,0,0,0,0
CCCc1nnc(NC(=O)c2ccccn2)s1,0,0,0,0,0,0
c1ccc(SCCN2CCOCC2)cc1,0,0,0,0,0,0
CC(=O)Nc1ccc(CC(N)=O)cc1,0,0,0,0,0,0
N#Cc1ccc(N2CCNCC2)c(F)c1,0,0,0,0,0,0
CNc1ncccn1,0,0,0,0,0,0
CCOc1ncccc1C(N)=O,0,0,0,0,0,0

# Entries of single compounds from above.
# `CN1CCCC(OC(=O)c2ccco2)C1` (stereo not given) as listed: NMR binding call [1]: 0; NMR binding call [2]: 0; NMR binding call [3]: 0; NMR binding call [4]: 0; NMR binding call [5]: 0; NMR binding call [6]: 0
# `CC1CN(C(=O)c2cnsn2)C(C)CO1` (stereo not given) as listed: NMR binding call [1]: 0; NMR binding call [2]: 0; NMR binding call [3]: 0; NMR binding call [4]: 0; NMR binding call [5]: 0; NMR binding call [6]: 0
# `Cc1ccc(S(=O)(=O)N(C)CCC#N)cc1` as listed: NMR binding call [1]: 0; NMR binding call [2]: 0; NMR binding call [3]: 0; NMR binding call [4]: 0; NMR binding call [5]: 0; NMR binding call [6]: 0

# (continued)

Structure (SMILES),NMR binding call [1],NMR binding call [2],NMR binding call [3],NMR binding call [4],NMR binding call [5],NMR binding call [6]
COc1ccc(CC(=O)Nc2nncs2)cc1,0,0,0,0,0,0
CC(N)c1nc(Cc2ccccc2)no1.Cl (stereo not given),0,0,0,0,0,0
O=C1CN(C(=O)COc2ccccc2)CCN1,0,0,0,0,0,0
O=C(NCCc1ccc(F)cc1)c1ccco1,0,0,0,0,0,0
CN(C(=O)C1CC1(C)C)c1cccnc1 (stereo not given),0,0,0,0,0,0
CC(C)(C)C(=O)NCCc1nc2ccccc2[nH]1,0,0,0,0,0,0
Cc1c(Cl)cccc1NC(=O)CN.Cl,0,0,0,0,0,0
CCCn1c(NC(=O)CC)nc2ccccc21,0,0,0,0,0,0
c1nc(N2CCC2)c2[nH]cnc2n1,1,0,0,0,0,0
CS(=O)(=O)NCCc1ccccc1,0,0,0,0,0,0
Cl.Cl.O=C(c1ccncc1)N1CCNCC1,0,0,0,0,0,0
Cc1cc(C(=O)NCc2cccs2)no1,0,0,0,0,0,0
CC(O)C(=O)NCc1ccccn1 (stereo not given),0,0,0,0,0,0
CC(C)C(=O)Nc1cccc(C#N)c1,0,0,0,0,0,0
COc1ccc(CNC(=O)c2cnccn2)cc1,0,0,0,0,0,0
O=C(Nc1nnc[nH]1)c1cccnc1Cl,0,0,0,0,0,0
Oc1ccc(CN2CCCC2)c2cccnc12,1,0,0,0,1,0
CNc1nccc(OC)n1,1,0,0,0,0,0
CC(=O)Nc1ccccc1CC(=O)O,0,0,0,0,0,0
Clc1snnc1CN1CCOCC1,0,0,0,0,0,0
Cc1ccc(CC(=O)NCC2CCCO2)cc1 (stereo not given),0,0,0,0,0,0
Cc1cccc(C(=O)NCC(=O)O)c1,0,0,0,0,0,0
COC(=O)CNC(=O)C1CCCCC1,0,0,0,0,0,0
O=C(O)c1ccc(OCc2ccccc2)cc1,0,0,0,0,0,0

# Source: the supplement of paper PMC8426693
